These are yes or no findings as the source states them, for the method shown. Binding seen in cells or lysates may run through a third protein. Some entries that bind do so weakly or less than the wild type.
Biological target: DIC1 with tandem GFP and 3xFLAG tags at the C terminus, knock-in (dynein-GFP mouse) (mouse) (UniProt O88485)
Assay: co-IP; endogenous complex from high-density fractions 23-24 of the P3 sucrose gradient of dynein-GFP mouse brain; IP with anti-FLAG against the 3xFLAG tag on DIC1

By UniProt entry, the sequences of proteins in these tests, tags left out.
UniProt O88485: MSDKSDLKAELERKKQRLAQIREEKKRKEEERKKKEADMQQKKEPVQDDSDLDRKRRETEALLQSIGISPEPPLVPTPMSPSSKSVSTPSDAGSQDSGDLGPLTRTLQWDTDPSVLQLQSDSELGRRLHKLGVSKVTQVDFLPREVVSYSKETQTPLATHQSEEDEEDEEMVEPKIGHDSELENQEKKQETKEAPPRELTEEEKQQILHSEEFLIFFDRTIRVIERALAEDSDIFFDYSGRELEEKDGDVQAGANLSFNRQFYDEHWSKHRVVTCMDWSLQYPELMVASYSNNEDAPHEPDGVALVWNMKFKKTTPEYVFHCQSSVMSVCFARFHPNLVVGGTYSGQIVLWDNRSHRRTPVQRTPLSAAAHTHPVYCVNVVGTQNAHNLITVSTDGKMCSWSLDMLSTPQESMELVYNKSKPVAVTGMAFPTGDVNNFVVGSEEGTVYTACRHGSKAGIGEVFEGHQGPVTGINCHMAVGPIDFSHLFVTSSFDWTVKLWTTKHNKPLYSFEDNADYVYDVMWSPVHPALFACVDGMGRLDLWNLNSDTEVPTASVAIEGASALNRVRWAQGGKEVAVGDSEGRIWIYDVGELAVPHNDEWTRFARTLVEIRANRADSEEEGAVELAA
UniProt Q9JHU4: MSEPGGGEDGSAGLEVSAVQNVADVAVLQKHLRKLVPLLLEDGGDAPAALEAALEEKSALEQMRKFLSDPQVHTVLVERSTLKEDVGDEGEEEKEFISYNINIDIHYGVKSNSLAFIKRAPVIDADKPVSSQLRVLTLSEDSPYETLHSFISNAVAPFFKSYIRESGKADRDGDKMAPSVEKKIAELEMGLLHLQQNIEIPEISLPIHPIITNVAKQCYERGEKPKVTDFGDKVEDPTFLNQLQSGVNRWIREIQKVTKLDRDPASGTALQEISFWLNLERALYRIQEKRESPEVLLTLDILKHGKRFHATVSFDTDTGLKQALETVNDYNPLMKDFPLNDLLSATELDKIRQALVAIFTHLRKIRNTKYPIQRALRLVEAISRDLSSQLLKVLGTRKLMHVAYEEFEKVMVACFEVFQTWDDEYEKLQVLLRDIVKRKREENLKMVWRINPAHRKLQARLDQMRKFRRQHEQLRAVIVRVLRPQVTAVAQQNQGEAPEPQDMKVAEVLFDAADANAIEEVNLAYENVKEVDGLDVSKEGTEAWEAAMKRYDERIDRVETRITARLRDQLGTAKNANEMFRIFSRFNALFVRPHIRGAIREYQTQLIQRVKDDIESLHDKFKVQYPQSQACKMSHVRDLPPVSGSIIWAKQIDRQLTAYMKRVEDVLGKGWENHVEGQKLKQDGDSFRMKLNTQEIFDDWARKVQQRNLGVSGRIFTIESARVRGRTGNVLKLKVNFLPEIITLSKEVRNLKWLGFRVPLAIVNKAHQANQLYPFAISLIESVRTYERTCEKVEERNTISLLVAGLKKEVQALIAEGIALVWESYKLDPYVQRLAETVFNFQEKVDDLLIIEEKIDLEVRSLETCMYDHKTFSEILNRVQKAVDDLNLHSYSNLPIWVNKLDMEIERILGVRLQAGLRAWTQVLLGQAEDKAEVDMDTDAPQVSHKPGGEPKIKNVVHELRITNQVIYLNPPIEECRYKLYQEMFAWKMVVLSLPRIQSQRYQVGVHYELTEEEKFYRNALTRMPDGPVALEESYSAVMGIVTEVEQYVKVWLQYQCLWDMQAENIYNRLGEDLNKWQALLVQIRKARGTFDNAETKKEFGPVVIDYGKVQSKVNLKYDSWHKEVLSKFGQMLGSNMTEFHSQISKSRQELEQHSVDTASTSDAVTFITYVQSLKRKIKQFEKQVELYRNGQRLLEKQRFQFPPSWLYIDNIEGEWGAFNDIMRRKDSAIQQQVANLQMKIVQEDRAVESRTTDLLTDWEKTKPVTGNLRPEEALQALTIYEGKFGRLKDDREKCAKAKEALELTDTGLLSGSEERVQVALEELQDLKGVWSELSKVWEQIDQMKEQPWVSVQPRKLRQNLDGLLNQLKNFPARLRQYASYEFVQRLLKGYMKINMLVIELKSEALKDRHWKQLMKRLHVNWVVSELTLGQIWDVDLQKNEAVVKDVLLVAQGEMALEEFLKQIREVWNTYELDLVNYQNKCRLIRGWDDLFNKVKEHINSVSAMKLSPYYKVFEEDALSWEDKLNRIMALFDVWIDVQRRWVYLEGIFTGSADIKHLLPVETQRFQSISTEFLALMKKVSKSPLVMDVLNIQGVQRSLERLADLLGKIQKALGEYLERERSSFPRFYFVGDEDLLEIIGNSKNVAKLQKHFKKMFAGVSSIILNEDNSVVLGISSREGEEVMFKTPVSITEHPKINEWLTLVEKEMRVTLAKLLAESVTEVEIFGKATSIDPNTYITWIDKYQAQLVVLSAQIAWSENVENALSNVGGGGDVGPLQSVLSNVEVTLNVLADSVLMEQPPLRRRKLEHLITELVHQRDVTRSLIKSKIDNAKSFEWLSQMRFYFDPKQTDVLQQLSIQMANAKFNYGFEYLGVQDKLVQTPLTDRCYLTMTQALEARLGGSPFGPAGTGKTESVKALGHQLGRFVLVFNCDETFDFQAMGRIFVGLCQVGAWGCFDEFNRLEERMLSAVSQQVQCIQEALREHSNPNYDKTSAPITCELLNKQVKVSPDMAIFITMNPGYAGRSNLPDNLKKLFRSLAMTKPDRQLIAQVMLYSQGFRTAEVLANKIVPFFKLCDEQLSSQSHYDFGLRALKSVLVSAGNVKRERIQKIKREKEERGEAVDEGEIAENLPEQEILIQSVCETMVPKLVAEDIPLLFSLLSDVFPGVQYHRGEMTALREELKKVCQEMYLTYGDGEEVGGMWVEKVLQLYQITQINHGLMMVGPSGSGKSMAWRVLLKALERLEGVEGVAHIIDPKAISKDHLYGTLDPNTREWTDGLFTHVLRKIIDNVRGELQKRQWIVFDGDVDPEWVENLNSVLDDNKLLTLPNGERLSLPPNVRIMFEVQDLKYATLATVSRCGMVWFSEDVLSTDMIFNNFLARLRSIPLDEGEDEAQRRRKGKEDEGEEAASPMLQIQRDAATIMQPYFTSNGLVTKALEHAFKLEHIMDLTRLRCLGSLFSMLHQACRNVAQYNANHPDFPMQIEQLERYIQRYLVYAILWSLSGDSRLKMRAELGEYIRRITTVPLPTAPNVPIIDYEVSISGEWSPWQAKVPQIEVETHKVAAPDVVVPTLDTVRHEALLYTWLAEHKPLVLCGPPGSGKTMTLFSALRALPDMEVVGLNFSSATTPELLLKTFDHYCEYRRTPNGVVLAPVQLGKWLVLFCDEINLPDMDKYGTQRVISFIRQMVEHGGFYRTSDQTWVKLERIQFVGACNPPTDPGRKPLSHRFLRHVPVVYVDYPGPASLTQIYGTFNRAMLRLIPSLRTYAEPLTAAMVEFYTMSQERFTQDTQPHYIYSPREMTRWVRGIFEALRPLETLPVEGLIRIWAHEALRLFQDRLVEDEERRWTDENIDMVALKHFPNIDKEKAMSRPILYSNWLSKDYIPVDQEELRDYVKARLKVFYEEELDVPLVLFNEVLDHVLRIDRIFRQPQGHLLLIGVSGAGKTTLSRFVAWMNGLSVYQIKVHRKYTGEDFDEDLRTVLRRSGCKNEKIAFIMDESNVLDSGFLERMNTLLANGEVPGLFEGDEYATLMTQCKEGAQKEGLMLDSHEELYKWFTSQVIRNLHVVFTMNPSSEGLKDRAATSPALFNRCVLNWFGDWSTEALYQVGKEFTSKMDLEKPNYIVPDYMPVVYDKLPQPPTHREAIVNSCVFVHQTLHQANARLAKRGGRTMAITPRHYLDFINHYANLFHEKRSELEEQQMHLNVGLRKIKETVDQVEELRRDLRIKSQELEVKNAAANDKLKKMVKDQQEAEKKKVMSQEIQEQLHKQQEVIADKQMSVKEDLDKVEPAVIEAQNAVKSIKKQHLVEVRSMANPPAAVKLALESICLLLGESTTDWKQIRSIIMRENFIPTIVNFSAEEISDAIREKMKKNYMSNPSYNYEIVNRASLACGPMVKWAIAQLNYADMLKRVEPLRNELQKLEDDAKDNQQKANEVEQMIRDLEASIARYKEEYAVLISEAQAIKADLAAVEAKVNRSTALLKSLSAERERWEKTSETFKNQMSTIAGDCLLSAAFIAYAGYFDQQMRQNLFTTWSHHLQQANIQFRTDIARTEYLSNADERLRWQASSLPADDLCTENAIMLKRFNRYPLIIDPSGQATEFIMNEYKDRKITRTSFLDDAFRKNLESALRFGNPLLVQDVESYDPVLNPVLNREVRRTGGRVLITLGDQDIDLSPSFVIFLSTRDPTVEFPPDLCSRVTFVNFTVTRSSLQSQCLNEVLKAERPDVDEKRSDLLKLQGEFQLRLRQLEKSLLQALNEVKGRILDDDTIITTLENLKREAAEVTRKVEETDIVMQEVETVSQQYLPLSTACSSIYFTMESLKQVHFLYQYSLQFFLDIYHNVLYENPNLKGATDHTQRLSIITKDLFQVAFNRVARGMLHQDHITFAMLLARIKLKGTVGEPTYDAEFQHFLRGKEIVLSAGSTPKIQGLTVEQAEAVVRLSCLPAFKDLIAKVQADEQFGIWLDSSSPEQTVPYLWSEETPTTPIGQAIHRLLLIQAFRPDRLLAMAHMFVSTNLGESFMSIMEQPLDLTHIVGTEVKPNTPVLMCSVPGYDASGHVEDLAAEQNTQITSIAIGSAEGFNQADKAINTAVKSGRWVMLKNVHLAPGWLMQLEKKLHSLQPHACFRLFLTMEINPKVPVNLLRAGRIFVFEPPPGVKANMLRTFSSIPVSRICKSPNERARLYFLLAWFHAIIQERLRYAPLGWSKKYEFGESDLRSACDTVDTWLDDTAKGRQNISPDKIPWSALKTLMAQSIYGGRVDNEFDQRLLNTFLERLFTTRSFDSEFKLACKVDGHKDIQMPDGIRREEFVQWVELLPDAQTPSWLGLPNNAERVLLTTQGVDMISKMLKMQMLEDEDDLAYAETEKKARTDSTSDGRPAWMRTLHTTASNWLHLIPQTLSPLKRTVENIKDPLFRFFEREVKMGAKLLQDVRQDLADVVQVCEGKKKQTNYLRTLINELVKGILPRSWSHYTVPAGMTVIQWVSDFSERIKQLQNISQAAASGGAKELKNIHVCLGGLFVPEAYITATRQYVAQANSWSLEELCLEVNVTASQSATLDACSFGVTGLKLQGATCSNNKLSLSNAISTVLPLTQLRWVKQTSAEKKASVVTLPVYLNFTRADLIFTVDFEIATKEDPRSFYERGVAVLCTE

## dynein heavy chain (DHC) (from UniProt Q9JHU4 1-4644)
  binding: binds

— PMC4893161, “The Dynamic Localization of Cytoplasmic Dynein in Neurons Is Driven by Kinesin-1” (Neuron, 2016)
